Reference: the supplement of paper PMC10849652
This is one part of the list.

The chains behind the UniProt entries cited, without tags or fusion partners. Where a name states a change or a piece, a line headed by the entry shows the natural chain unless it says otherwise.
UniProt Q9BWH6: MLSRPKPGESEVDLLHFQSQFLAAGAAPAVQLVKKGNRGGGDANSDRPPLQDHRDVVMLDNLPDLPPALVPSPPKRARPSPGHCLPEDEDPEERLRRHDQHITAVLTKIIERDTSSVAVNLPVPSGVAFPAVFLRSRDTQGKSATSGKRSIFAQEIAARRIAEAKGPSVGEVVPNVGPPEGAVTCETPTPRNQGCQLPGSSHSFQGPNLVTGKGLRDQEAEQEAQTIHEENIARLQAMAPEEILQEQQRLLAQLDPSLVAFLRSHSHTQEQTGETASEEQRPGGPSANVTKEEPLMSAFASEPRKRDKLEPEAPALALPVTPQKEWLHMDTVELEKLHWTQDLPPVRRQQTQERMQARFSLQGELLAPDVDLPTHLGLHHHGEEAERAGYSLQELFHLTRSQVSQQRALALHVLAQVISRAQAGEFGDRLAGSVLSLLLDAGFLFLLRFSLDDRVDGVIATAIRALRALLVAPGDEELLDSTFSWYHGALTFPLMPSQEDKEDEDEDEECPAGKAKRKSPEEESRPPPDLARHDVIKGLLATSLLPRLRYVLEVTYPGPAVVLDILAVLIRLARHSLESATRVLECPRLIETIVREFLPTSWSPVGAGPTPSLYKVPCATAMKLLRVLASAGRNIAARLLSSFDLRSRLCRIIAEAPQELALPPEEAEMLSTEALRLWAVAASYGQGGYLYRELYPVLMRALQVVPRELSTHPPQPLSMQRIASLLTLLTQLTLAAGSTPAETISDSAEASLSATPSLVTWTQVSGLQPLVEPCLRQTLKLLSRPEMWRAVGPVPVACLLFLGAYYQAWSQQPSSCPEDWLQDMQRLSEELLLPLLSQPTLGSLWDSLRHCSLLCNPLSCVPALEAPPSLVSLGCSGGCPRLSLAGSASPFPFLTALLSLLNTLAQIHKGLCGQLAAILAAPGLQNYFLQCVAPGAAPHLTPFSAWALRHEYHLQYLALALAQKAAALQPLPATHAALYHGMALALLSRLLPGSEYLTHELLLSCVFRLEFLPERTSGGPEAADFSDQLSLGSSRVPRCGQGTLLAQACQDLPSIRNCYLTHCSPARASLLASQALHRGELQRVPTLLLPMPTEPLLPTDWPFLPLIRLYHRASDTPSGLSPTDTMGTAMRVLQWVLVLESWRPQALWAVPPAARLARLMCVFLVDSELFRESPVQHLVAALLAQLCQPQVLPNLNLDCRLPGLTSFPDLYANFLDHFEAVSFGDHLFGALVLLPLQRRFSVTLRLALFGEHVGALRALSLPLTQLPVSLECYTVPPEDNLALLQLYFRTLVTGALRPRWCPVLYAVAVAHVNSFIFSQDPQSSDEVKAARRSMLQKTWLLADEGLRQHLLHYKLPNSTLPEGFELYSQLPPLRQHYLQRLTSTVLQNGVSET
UniProt O75150, whole entry, looked up: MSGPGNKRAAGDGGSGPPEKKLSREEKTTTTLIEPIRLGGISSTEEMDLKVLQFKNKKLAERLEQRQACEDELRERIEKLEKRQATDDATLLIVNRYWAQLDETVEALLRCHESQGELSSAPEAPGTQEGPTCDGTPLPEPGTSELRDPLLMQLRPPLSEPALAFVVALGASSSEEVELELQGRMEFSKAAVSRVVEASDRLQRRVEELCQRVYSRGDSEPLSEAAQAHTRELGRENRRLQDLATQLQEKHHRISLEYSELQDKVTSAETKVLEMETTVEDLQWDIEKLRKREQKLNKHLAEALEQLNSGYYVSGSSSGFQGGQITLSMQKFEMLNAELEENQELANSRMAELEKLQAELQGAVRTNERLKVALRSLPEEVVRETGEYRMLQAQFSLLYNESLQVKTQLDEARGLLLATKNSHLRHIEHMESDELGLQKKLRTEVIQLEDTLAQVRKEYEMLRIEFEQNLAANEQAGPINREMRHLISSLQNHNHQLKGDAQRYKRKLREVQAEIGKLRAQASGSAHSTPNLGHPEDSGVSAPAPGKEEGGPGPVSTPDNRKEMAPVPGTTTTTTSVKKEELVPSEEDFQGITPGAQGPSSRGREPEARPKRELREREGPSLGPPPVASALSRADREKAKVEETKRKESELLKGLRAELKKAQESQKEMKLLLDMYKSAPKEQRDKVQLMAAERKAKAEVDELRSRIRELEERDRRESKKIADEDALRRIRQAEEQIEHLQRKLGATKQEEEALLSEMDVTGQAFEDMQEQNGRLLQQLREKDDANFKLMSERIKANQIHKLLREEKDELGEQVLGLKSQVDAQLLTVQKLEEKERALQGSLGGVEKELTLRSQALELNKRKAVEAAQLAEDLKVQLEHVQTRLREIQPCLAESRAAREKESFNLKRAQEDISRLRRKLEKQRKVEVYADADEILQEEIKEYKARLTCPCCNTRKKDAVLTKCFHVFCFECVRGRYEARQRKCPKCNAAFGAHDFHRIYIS
UniProt Q9P0P0: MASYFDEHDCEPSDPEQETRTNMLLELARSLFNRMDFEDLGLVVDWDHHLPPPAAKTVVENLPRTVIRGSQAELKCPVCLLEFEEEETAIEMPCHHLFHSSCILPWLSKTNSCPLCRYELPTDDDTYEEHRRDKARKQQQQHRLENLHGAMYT
UniProt P15927: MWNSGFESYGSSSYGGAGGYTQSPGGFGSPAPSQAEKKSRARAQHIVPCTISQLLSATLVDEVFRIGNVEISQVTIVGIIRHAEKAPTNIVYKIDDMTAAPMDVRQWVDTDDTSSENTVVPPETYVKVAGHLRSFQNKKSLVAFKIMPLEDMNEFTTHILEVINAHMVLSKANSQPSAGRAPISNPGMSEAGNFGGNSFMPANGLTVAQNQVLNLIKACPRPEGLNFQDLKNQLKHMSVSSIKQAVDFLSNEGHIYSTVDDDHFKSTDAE
UniProt Q13546: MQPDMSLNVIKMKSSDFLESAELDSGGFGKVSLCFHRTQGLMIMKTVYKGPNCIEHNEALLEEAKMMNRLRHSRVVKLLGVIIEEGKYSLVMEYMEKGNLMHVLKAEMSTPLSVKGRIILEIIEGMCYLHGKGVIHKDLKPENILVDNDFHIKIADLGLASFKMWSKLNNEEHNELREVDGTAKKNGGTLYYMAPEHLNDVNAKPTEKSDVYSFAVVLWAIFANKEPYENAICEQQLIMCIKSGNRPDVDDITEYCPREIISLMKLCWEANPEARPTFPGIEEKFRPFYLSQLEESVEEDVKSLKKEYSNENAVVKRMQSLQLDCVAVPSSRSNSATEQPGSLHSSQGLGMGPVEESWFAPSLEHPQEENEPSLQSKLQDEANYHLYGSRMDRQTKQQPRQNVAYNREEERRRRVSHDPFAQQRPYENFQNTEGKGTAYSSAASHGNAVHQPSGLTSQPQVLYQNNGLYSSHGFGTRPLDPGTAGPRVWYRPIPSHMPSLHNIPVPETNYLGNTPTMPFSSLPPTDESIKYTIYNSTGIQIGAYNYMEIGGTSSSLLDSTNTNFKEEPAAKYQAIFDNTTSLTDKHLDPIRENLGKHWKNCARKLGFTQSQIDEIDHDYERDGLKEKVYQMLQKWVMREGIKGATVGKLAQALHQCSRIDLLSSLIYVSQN
UniProt Q9H920: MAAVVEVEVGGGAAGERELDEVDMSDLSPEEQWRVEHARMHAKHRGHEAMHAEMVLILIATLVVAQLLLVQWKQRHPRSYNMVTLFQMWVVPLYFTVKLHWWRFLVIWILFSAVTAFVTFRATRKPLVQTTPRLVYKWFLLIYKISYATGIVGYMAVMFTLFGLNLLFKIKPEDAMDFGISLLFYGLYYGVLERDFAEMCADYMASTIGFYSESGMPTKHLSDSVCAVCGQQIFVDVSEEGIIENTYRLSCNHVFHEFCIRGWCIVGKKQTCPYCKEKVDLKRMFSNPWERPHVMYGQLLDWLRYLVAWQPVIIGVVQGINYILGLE
UniProt Q96K19: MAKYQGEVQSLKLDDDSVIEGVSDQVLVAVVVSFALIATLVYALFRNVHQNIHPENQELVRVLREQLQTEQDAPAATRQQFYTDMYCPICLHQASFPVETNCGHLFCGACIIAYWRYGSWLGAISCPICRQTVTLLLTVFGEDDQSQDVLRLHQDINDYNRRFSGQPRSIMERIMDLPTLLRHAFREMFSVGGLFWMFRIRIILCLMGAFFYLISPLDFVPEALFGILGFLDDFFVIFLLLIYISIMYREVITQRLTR
UniProt Q9H6T3, whole entry, looked up: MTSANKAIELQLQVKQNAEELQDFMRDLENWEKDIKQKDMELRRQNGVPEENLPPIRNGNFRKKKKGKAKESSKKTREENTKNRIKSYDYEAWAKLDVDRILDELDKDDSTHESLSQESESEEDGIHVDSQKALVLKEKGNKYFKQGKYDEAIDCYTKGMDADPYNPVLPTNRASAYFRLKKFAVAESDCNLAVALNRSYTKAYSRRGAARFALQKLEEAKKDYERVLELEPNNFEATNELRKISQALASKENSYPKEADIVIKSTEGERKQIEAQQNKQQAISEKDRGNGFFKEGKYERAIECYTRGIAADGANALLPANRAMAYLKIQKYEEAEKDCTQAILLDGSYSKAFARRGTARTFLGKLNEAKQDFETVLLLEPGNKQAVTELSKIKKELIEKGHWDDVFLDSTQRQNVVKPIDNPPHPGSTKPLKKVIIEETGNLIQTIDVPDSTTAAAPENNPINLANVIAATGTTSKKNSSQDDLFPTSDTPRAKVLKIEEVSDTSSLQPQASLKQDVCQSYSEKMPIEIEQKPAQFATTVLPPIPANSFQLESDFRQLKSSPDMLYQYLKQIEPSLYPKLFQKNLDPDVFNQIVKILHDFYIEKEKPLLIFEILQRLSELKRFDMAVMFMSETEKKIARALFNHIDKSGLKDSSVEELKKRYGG
UniProt Q8WVD5: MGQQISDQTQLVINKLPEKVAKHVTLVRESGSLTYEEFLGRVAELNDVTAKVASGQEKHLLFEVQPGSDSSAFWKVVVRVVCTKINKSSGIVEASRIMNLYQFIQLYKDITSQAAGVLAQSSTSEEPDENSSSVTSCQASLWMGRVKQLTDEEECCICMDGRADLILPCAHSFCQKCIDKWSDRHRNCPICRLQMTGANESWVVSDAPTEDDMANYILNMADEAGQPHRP
UniProt Q9BV68: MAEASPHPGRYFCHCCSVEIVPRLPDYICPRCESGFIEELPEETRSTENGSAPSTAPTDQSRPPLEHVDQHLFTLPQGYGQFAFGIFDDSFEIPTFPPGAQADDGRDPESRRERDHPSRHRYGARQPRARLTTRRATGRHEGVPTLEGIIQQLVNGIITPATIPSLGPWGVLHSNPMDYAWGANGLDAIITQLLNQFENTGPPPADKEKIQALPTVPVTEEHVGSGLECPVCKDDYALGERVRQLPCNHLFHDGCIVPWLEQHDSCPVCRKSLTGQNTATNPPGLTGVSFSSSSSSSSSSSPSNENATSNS
UniProt Q9NVN3: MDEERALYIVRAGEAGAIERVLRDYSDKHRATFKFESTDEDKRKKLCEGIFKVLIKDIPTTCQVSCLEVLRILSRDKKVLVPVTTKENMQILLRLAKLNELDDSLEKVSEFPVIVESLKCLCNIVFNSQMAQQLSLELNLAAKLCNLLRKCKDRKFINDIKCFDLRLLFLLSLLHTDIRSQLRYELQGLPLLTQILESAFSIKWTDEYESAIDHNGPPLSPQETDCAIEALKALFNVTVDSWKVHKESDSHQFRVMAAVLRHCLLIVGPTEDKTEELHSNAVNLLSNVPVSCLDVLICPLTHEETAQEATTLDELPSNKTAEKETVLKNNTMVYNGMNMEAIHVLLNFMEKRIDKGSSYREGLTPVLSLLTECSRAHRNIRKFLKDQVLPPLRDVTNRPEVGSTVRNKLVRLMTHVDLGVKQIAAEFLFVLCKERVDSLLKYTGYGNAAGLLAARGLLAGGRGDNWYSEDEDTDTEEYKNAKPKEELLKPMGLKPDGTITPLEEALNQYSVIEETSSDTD
UniProt Q15287: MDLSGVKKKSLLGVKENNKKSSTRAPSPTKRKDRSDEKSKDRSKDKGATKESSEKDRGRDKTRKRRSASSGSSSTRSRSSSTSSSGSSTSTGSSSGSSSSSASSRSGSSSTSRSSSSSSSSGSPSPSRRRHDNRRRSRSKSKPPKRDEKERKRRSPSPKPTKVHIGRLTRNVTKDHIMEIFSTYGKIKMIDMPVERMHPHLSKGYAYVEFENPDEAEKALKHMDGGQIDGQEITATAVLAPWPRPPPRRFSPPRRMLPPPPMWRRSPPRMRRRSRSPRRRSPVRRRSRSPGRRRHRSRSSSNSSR
UniProt Q969X0: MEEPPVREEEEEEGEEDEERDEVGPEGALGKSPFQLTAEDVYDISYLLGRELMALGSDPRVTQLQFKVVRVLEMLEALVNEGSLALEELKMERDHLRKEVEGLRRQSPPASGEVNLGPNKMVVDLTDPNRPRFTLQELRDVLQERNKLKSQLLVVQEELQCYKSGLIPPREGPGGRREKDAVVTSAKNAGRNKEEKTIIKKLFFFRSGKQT
UniProt Q9Y225: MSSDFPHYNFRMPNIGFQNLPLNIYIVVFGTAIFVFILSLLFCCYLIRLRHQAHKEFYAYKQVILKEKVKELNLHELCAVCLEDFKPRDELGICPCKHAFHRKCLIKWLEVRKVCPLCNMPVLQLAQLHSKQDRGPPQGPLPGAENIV

Experiments:
Experiment in all cases: log2 fold change, soluble protein after heating vs DMSO (PISA); higher = thermal stabilisation; K562 lysate, 10 uM; active = over 0.2 and 3.5 SD of the protein, either way, in both replicates (recomputed)
[1] = compound: CS(=O)(=O)CCNCc1ccc(-c2ccc3ncnc(Nc4ccc(OCc5cccc(F)c5)c(Cl)c4)c3c2)o1 [lapatinib]
Procedure, shortened: (§1)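 Pellets of K562 cells were dounce-homogenised in PBS pH 7.4 with 1 mM MgCl2, and the crude extract was held at 1 mg/mL protein for a 30 min treatment with 10 μM compound. Aliquots were heated for 3 min over 48°C-58°C and pooled before NP-40 was added to 0.5% at 4°C. The supernatant from 21,000xg for 90 min was quantified by TMTpro 16plex LC-MS/MS with channel sums equalised. Values are reported from duplicates as log-two fold change in thermal stability relative to solvent controls.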

[2] = compound: CS(=O)(=O)N1CCN(Cc2cc3nc(-c4cccc5[nH]ncc45)nc(N4CCOCC4)c3s2)CC1 [pictilisib]
Procedure, shortened: as §1

[3] = compound: C[C@@H](Oc1cc(-c2cnn(C3CCNCC3)c2)cnc1N)c1c(Cl)ccc(F)c1Cl [crizotinib]
Procedure, shortened: as §1

[4] = compound: C[C@H](C1=CC=C(C=C1)C(=O)NC2=C3C=CNC3=NC=C2)N
Procedure, shortened: as §1

[5] = compound: C[C@H](Nc1ncnc2nc[nH]c12)c1cc2cccc(Cl)c2c(=O)n1-c1ccccc1 [duvelisib]
Procedure, shortened: as §1

[6] = compound: Cc1cc(Nc2cc(CN3CCOCC3)c3nc(C)c(Cc4ccc(Cl)cc4F)n3n2)n[nH]1 [gandotinib]
Procedure, shortened: as §1

[7] = compound: Cc1cc(Nc2cc(N3CCN(C)CC3)nc(Sc3ccc(NC(=O)C4CC4)cc3)n2)n[nH]1 [tozasertib]
Procedure, shortened: as §1

[8] = compound: Cc1ccc(-n2nc(C(C)(C)C)cc2NC(=O)Nc2ccc(OCCN3CCOCC3)c3ccccc23)cc1 [doramapimod]
Procedure, shortened: as §1

[9] = compound: Cc1ccc(NC(=O)c2ccc(CN3CC[C@H](N(C)C)C3)c(C(F)(F)F)c2)cc1Nc1nccc(-c2cncnc2)n1 [bafetinib]
Procedure, shortened: as §1

[10] = compound: Cc1cccc(CC(=O)N2CCc3c2ccc(-c2cn(C)c4ncnc(N)c24)c3F)n1
Procedure, shortened: as §1

Row | Target | log2 fold change [1] | log2 fold change [2] | log2 fold change [3] | log2 fold change [4] | log2 fold change [5] | log2 fold change [6] | log2 fold change [7] | log2 fold change [8] | log2 fold change [9] | log2 fold change [10]
1 | ROR2 (UniProt Q01974) | inactive: 0.003 | inactive: -0.005 | inactive: -0.135 | inactive: -0.096 | inactive: 0.03 | inactive: 0.008 | inactive: 0.007 | inactive: 0.001 | inactive: 0.007 | inactive: 0.036
2 | RPAP1 (UniProt Q9BWH6) | inactive: -0.012 | inactive: -0.027 | inactive: -0.026 | inactive: -0.026 | inactive: 0.021 | inactive: -0.002 | inactive: 0.018 | inactive: 0.001 | inactive: -0.041 | inactive: 0
3 | RNF40 (UniProt O75150) | inactive: -0.019 | inactive: -0.005 | inactive: -0.01 | inactive: -0.011 | inactive: -0.001 | inactive: -0.048 | inactive: -0.002 | inactive: 0.002 | inactive: 0.01 | inactive: 0.03
4 | RPL10 (UniProt F8W7C6) | inactive: -0.114 | inactive: 0.005 | inactive: -0.068 | inactive: -0.212 | inactive: 0.014 | inactive: 0.017 | inactive: -0.046 | inactive: -0.013 | inactive: -0.108 | inactive: 0.11
5 | RPL35 (UniProt P42766) | inactive: -0.144 | inactive: 0.002 | inactive: -0.018 | inactive: -0.034 | inactive: 0.024 | inactive: 0.031 | inactive: -0.028 | inactive: -0.11 | inactive: -0.035 | inactive: 0.004
6 | RNF113A (UniProt O15541) | inactive: 0.012 | inactive: 0.021 | inactive: 0.024 | inactive: -0.072 | inactive: -0.009 | inactive: 0.068 | inactive: 0.002 | inactive: 0.016 | inactive: 0 | inactive: 0.034
7 | RNF181 (UniProt Q9P0P0) | inactive: 0.079 | inactive: -0.069 | inactive: 0.049 | inactive: 0.057 | inactive: 0.028 | inactive: -0.042 | inactive: 0.054 | inactive: 0.057 | inactive: -0.03 | inactive: 0.01
8 | RPA2 isoform 3 (UniProt P15927) | inactive: 0.003 | inactive: -0.008 | inactive: -0.013 | inactive: -0.086 | inactive: 0.01 | inactive: 0.078 | inactive: -0.005 | inactive: -0.009 | inactive: -0.006 | inactive: 0.045
9 | RPL30 (UniProt P62888) | inactive: -0.004 | inactive: -0.015 | inactive: -0.017 | inactive: -0.046 | inactive: 0.007 | inactive: 0.017 | inactive: -0.02 | inactive: 0.048 | inactive: -0.032 | inactive: 0.034
10 | RMDN1 (UniProt Q96DB5) | inactive: 0.02 | inactive: -0.01 | inactive: 0.006 | inactive: 0.046 | inactive: -0.005 | inactive: -0.025 | inactive: 0 | inactive: 0.033 | inactive: 0.023 | inactive: -0.017
11 | RIPK1 (UniProt Q13546) | inactive: 0.006 | inactive: -0.002 | inactive: 0.061 | inactive: -0.026 | inactive: -0.05 | active: 0.256 | active: 0.326 | inactive: 0.038 | inactive: 0.007 | active: 0.755
12 | RNF121 (UniProt Q9H920) | inactive: -0.033 | inactive: -0.092 | inactive: -0.069 | inactive: -0.137 | inactive: -0.013 | inactive: 0.124 |  | inactive: 0.03 | inactive: -0.014 | inactive: 0.014
13 | RIPOR1 isoform 4 (UniProt Q6ZS17) | inactive: 0.034 | inactive: -0.071 | inactive: -0.063 | inactive: -0.012 | inactive: 0.01 | inactive: -0.105 | inactive: -0.061 | inactive: 0.07 | inactive: -0.048 | inactive: 0.017
14 | RNF170 (UniProt Q96K19) | inactive: -0.011 | inactive: -0.332 |  | inactive: -0.042 | inactive: -0.229 | inactive: -0.198 |  |  | inactive: 0.024 | active: 1.2
15 | RNF149 (UniProt Q8NC42) | inactive: 0.073 | inactive: -0.025 | inactive: -0.006 | inactive: -0.039 | inactive: -0.025 | inactive: -0.026 |  | inactive: -0.099 | inactive: -0.105 | inactive: -0.013
16 | RPL31 (UniProt P62899) | inactive: -0.01 | inactive: 0.009 | inactive: 0.016 | inactive: -0.006 | inactive: 0.004 | inactive: 0.005 | inactive: -0.006 | inactive: -0.041 | inactive: -0.023 | inactive: 0.029
17 | RNF167 (UniProt Q9H6Y7) | inactive: -0.04 | inactive: -0.07 | inactive: 0.09 | inactive: -0.04 | inactive: -0.045 | inactive: 0.016 |  | inactive: -0.175 | inactive: 0.073 | inactive: 0.006
18 | RNF220 (UniProt Q5VTB9) | inactive: 0.012 | inactive: -0.044 | inactive: -0.019 | inactive: -0.093 | inactive: 0.015 | inactive: -0.042 | inactive: -0.009 | inactive: -0.018 | inactive: -0.007 | inactive: 0.107
19 | RPAP3 (UniProt Q9H6T3) | inactive: -0.01 | inactive: 0.005 | inactive: -0.025 | inactive: 0.004 | inactive: 0.016 | inactive: -0.008 | inactive: -0.009 | inactive: 0.014 | inactive: -0.033 | inactive: 0.007

Part of the list above, in markdown.

| Row | Target | log2 fold change [1] | log2 fold change [2] | log2 fold change [3] | log2 fold change [4] | log2 fold change [5] | log2 fold change [6] | log2 fold change [7] | log2 fold change [8] | log2 fold change [9] | log2 fold change [10] |
| --- | --- | --- | --- | --- | --- | --- | --- | --- | --- | --- | --- |
| 16 | RPL31 (UniProt P62899) | inactive: -0.01 | inactive: 0.009 | inactive: 0.016 | inactive: -0.006 | inactive: 0.004 | inactive: 0.005 | inactive: -0.006 | inactive: -0.041 | inactive: -0.023 | inactive: 0.029 |
| 17 | RNF167 (UniProt Q9H6Y7) | inactive: -0.04 | inactive: -0.07 | inactive: 0.09 | inactive: -0.04 | inactive: -0.045 | inactive: 0.016 |  | inactive: -0.175 | inactive: 0.073 | inactive: 0.006 |

Following part.

Row | Target | log2 fold change [1] | log2 fold change [2] | log2 fold change [3] | log2 fold change [4] | log2 fold change [5] | log2 fold change [6] | log2 fold change [7] | log2 fold change [8] | log2 fold change [9] | log2 fold change [10]
20 | RNF141 (UniProt Q8WVD5) | inactive: 0.051 | inactive: -0.009 | inactive: -0.005 | inactive: -0.037 | inactive: 0.021 | inactive: 0.031 | inactive: 0.001 | inactive: 0.081 | inactive: -0.051 | inactive: 0.046
21 | RHOB (UniProt P62745) | inactive: 0.041 | inactive: 0.061 | inactive: -0.041 | inactive: -0.021 | inactive: 0.298 | inactive: 0.017 | inactive: -0.116 | inactive: 0.096 | inactive: 0.114 | inactive: -0.028
22 | RILPL1 (UniProt Q5EBL4) | inactive: -0.009 | inactive: -0.026 | inactive: -0.009 | inactive: -0.042 | inactive: 0.031 | inactive: 0.028 | inactive: -0.003 | inactive: -0.012 | inactive: -0.017 | inactive: 0.007
23 | RNF126 (UniProt Q9BV68) | inactive: 0.053 | inactive: 0.025 | inactive: -0.071 | inactive: -0.056 | inactive: 0.069 | inactive: -0.073 | inactive: 0.116 | inactive: -0.202 | inactive: -0.101 | inactive: 0.144
24 | RHOC (UniProt P08134) | inactive: 0.008 | inactive: -0.013 | inactive: -0.003 | inactive: -0.161 | inactive: -0.018 | inactive: 0.028 | inactive: 0.039 | inactive: 0.071 | inactive: 0.091 | inactive: 0.071
25 | RPL18 (UniProt Q07020) | inactive: 0.008 | inactive: 0.061 | inactive: -0.007 | inactive: 0.037 | inactive: 0.036 | inactive: -0.034 | inactive: 0.007 | inactive: -0.029 | inactive: 0.04 | inactive: 0.024
26 | RPL28 (UniProt P46779) | inactive: 0.01 | inactive: 0.047 | inactive: 0.043 | inactive: 0.234 | inactive: 0.018 | inactive: -0.098 | inactive: -0.018 | inactive: -0.046 | inactive: 0.056 | inactive: -0.059
27 | RIC8B isoform 1 (UniProt Q9NVN3) | inactive: 0.008 | inactive: 0.016 | inactive: -0.002 | inactive: 0.038 | inactive: -0.137 | inactive: -0.064 | inactive: 0.051 | inactive: 0.031 | inactive: -0.122 | inactive: 0.03
28 | ROGDI (UniProt Q9GZN7) | inactive: 0.16 | inactive: -0.175 | inactive: -0.144 | inactive: 0.257 | inactive: -0.022 | inactive: -0.178 |  | inactive: -0.038 | inactive: -0.115 | inactive: 0.119
29 | RNPS1 (UniProt Q15287) | inactive: 0.025 | inactive: 0.044 | active: 0.254 | inactive: -0.02 | inactive: 0.038 | inactive: 0 | inactive: 0.042 | inactive: -0.057 | inactive: -0.009 | inactive: -0.001
30 | RMDN3 (UniProt Q96TC7) | inactive: -0.019 | inactive: -0.02 | inactive: -0.059 | inactive: -0.067 | inactive: 0.012 | inactive: 0.031 | inactive: 0.051 | inactive: 0.055 | inactive: -0.027 | inactive: 0.093
31 | RILPL2 (UniProt Q969X0) | inactive: 0.048 | inactive: 0.027 | inactive: -0.072 | inactive: -0.133 |  | inactive: 0.021 |  | inactive: 0.124 | inactive: -0.129 | inactive: 0.089
32 | RNF25 (UniProt Q96BH1) | inactive: -0.006 | inactive: 0.014 | inactive: 0.015 | inactive: -0.049 | inactive: 0.008 | inactive: 0.046 | inactive: -0.031 | inactive: -0.018 | inactive: -0.014 | inactive: -0.004
33 | RPF1 (UniProt Q9H9Y2) | inactive: 0.017 | inactive: -0.403 | inactive: 0.014 |  |  |  |  | inactive: -0.038 | inactive: 0 | 
34 | RNF20 (UniProt Q5VTR2) | inactive: -0.007 | inactive: -0.003 | inactive: 0.005 | inactive: -0.053 | inactive: 0.009 | inactive: -0.006 | inactive: -0.012 | inactive: 0.001 | inactive: -0.001 | inactive: 0.02
35 | RNF24 isoform 2 (UniProt Q9Y225) |  | inactive: -0.089 | inactive: -0.074 | inactive: -0.173 |  | inactive: 0.117 |  | inactive: -0.093 | inactive: -0.477 | inactive: 0.028
36 | RPL32 (UniProt D3YTI8) | inactive: 0.002 |  |  |  | inactive: 0.039 |  |  |  |  | 
37 | RNF169 (UniProt Q8NCN4) |  | inactive: -0.14 | inactive: -0.005 |  | inactive: 0.061 |  |  | inactive: -0.003 | inactive: 0.155 | 
